Cleaved PARP in drug-treated melanoma cells

Every entry is a combination with tipifarnib at 0.05 µM: Cn1cncc1[C@@](N)(c1ccc(Cl)cc1)c1ccc2c(c1)c(-c1cccc(Cl)c1)cc(=O)n2C

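Human melanoma cells were exposed to two drugs together for 72 h in 1,536-well plates and read by automated microscopy after fixing and staining. Values are the share of nuclei positive for cleaved PARP as a percentage of the same share in the DMSO control: 100 is the control level, higher means more apoptosis. Concentrations were fixed for each drug; these are the higher of two levels. The file gives one value for each pair and line, without errors, so small differences may be noise. Basal and induced levels differ widely between cell lines.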
An unselected part of the screen is shown.

| Partner | IST-MEL1 | C32 | A2058 | G-361 | SK-MEL-5 | SK-MEL-2 |
|---|---|---|---|---|---|---|
| CC(C)CCN1c2nc(Nc3cc(F)c(O)c(F)c3)ncc2N(C)C(=O)C1C (centres undefined) at 1 µM | 86.9 | 81.8 | 482 | 551 | 203 | 130 |
| COC(=O)c1sccc1S(=O)(=O)Nc1ccc(Nc2ccccc2)cc1OC at 5 µM | 144 | 101 | 131 | 85.4 | 85.1 | 172 |
| O=C(Nc1cc(C(F)(F)F)cc(C(F)(F)F)c1)c1cc(Cl)ccc1O at 0.08 µM | 303 | 249 | 228 | 162 | 170 | 130 |
| Oc1nc(-c2ccc(C(F)(F)F)cc2)nc2c1CSCC2 at 10 µM | 131 | 202 | 151 | 27.9 | 476 | 267 |
| CN(NC(=O)CC(=O)NN(C)C(=S)c1ccccc1)C(=S)c1ccccc1 at 0.03 µM | 321 | 7190 | 4640 | 1090 | 95.7 | 140 |
| COc1ccc(C2=N[C@@H](c3ccc(Cl)cc3)[C@@H](c3ccc(Cl)cc3)N2C(=O)N2CCNC(=O)C2)c(OC(C)C)c1 at 0.5 µM | 77.3 | 387 | 149 | 168 | 80.2 | 233 |
| Cc1nc(Nc2ncc(C(=O)Nc3c(C)cccc3Cl)s2)cc(N2CCN(CCO)CC2)n1 at 0.02 µM | 211 | 1120 | 221 | 354 | 86.8 | 120 |
| C[C@]12O[C@H](C[C@]1(O)CO)n1c3ccccc3c3c4c(c5c6ccccc6n2c5c31)CNC4=O at 0.02 µM | 268 | 134 | 151 | 263 | 142 | 393 |
| CN(C)S(=O)(=O)c1ccc2c(c1)/C(=C/c1cc3c([nH]1)CCCC3)C(=O)N2 at 2 µM | 243 | 488 | 239 | 209 | 54.3 | 23.1 |
| COc1cc2ncnc(Nc3ccc(Oc4ccccc4)cc3)c2cc1OC at 10 µM | 48.3 | 106 | 374 | 670 | 128 | 294 |
| C=CCn1c(=O)c2cnc(Nc3ccc(N4CCN(C)CC4)cc3)nc2n1-c1cccc(C(C)(C)O)n1 at 0.1 µM | 75.3 | 195 | 239 | 164 | 430 | 388 |
| O=C(Nc1ccccc1)c1cc([N+](=O)[O-])ccc1Cl at 10 µM | 32.1 | 306 | 163 | 83.1 | 61.6 | 156 |
| CO[C@@H]1[C@H](N(C)C(=O)c2ccccc2)C[C@H]2O[C@]1(C)n1c3ccccc3c3c4c(c5c6ccccc6n2c5c31)C(=O)NC4 at 0.4 µM | 105 | 234 | 455 | 352 | 150 | 78.4 |
| Nc1ncn([C@H]2C[C@H](O)[C@@H](CO)O2)c(=O)n1 at 0.5 µM | 234 | 60.4 | 217 | 137 | 170 | 329 |
| CCN(CC)CCCCNc1ncc2cc(-c3cc(OC)cc(OC)c3)c(NC(=O)NC(C)(C)C)nc2n1 at 0.5 µM | 63.6 | 103 | 179 | 38.0 | 206 | 194 |
| Cn1c(Nc2ccc(C(F)(F)F)cc2)nc2cc(Oc3ccnc(-c4ncc(C(F)(F)F)[nH]4)c3)ccc21 at 0.4 µM | 234 | 615 | 373 | 1040 | 5800 | 360 |
| Nc1nc(F)nc2c1ncn2[C@@H]1O[C@H](CO)[C@@H](O)[C@@H]1O at 1 µM | 123 | 109 | 144 | 321 | 4630 | 1220 |
| OCCn1cc(-c2cnc3nnn(Cc4ccc5ncccc5c4)c3n2)cn1 at 5 µM | 58.8 | 94.8 | 210 | 71.5 | 375 | 165 |
| Cc1cn(-c2cc(NC(=O)c3ccc(C)c(Nc4nccc(-c5cccnc5)n4)c3)cc(C(F)(F)F)c2)cn1 at 1 µM | 78.8 | 187 | 149 | 177 | 244 | 132 |
| Cc1cc(N2CCOCC2)cc2[nH]c(-c3c(NC[C@@H](O)c4cccc(Cl)c4)cc[nH]c3=O)nc12 at 1 µM | 151 | 449 | 191 | 219 | 91.4 | 234 |
| C[C@@H]1CCN(C(=O)CC#N)C[C@@H]1N(C)c1ncnc2[nH]ccc12 at 5 µM | 68.7 | 83.4 | 153 | 103 | 164 | 119 |
| CC1(C)CCC(c2ccc(Cl)cc2)=C(CN2CCN(c3ccc(C(=O)NS(=O)(=O)c4ccc(N[C@H](CCN5CCOCC5)CSc5ccccc5)c(S(=O)(=O)C(F)(F)F)c4)cc3)CC2)C1 at 2 µM | 220 | 213 | 131 | 339 | 314 | 537 |
| Cc1cc(SCc2sc(-c3ccc(C(F)(F)F)c(F)c3)nc2C)ccc1OCC(=O)O at 10 µM | 270 | 105 | 125 | 130 | 198 | 89.8 |

For reference, 2 entries once more:

Partner	IST-MEL1	C32	A2058	G-361	SK-MEL-5	SK-MEL-2
CN(C)S(=O)(=O)c1ccc2c(c1)/C(=C/c1cc3c([nH]1)CCCC3)C(=O)N2 at 2 µM	243	488	239	209	54.3	23.1
C[C@]12O[C@H](C[C@]1(O)CO)n1c3ccccc3c3c4c(c5c6ccccc6n2c5c31)CNC4=O at 0.02 µM	268	134	151	263	142	393

From a melanoma drug combination screen (doi:10.1371/journal.pone.0140310); values rounded.